Laboratory results as given in the supplement of paper PMC8728848.
Some of the results follow.

Legend:
Assay in all cases: glycan array binding signal (z-score within array); higher = stronger binding
Details in all cases: glycan notation: IUPAC condensed, linker removed
[1] = molecular target: Neu5Ac(a2-3)Gal(b1-4)GlcNAc(b1-6)GalNAc
Method in brief: (§1)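 Glycan array binding is given as a within-array Z-score, which can be read as non-binding when negative. The arrays, 3228 of them, came from the Consortium for Functional Glycomics database and were retained only where the protein sequence was available. Z-scores were averaged across arrays of the same protein sequence at different concentrations or buffers and across linkers.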

[2] = molecular target: Neu5Ac(a2-3)Gal(b1-4)GlcNAc(b1-6)[Gal(b1-3)]GalNAc
Method in brief: as §1

[3] = molecular target: Neu5Ac(a2-3)Gal(b1-4)GlcNAc(b1-6)[Neu5Ac(a2-3)Gal(b1-3)]GalNAc
Method in brief: as §1

[4] = molecular target: Neu5Ac(a2-3)Gal(b1-4)GlcNAc6S
Method in brief: as §1

[5] = molecular target: Neu5Ac(a2-3)Gal(b1-4)[Fuc(a1-3)]GlcNAc
Method in brief: as §1

[6] = molecular target: Neu5Ac(a2-3)Gal(b1-4)[Fuc(a1-3)]GlcNAc(b1-2)Man
Method in brief: as §1

[7] = molecular target: Neu5Ac(a2-3)Gal(b1-4)[Fuc(a1-3)]GlcNAc(b1-3)Gal
Method in brief: as §1

[8] = molecular target: Neu5Ac(a2-3)Gal(b1-4)[Fuc(a1-3)]GlcNAc(b1-3)Gal(b1-4)GlcNAc
Method in brief: as §1

[9] = molecular target: Neu5Ac(a2-3)Gal(b1-4)[Fuc(a1-3)]GlcNAc(b1-3)Gal(b1-4)[Fuc(a1-3)]GlcNAc(b1-3)Gal(b1-4)[Fuc(a1-3)]GlcNAc
Method in brief: as §1

[10] = molecular target: Neu5Ac(a2-3)Gal(b1-4)[Fuc(a1-3)]GlcNAc(b1-3)GalNAc
Method in brief: as §1

[11] = molecular target: Neu5Ac(a2-3)Gal(b1-4)[Fuc(a1-3)]GlcNAc(b1-6)[Gal(b1-3)]GalNAc
Method in brief: as §1

[12] = molecular target: Neu5Ac(a2-3)Gal(b1-4)[Fuc(a1-3)]GlcNAc(b1-6)[Neu5Ac(a2-3)Gal(b1-3)]GalNAc
Method in brief: as §1

[13] = molecular target: Neu5Ac(a2-3)Gal(b1-4)[Fuc(a1-3)]GlcNAc6S
Method in brief: as §1

[14] = molecular target: Neu5Ac(a2-3)Gal6S(b1-4)GlcNAc
Method in brief: as §1

[15] = molecular target: Neu5Ac(a2-3)Gal6S(b1-4)[Fuc(a1-3)]GlcNAc
Method in brief: as §1

Neu5Ac(a2-3)GalNAc = molecular target: Neu5Ac(a2-3)GalNAc
Method in brief: as §1

[16] = molecular target: Neu5Ac(a2-3)GalNAc(b1-4)GlcNAc
Method in brief: as §1

[17] = molecular target: Neu5Ac(a2-3)[GalNAc(b1-4)]Gal(b1-4)Glc
Method in brief: as §1

[18] = molecular target: Neu5Ac(a2-3)[GalNAc(b1-4)]Gal(b1-4)GlcNAc
Method in brief: as §1

[19] = molecular target: Neu5Ac(a2-3)[GalNAc(b1-4)]Gal(b1-4)GlcNAc(b1-3)GalNAc
Method in brief: as §1

[20] = molecular target: Neu5Ac(a2-3)[Neu5Ac(a2-6)]GalNAc
Method in brief: as §1

Neu5Ac(a2-6)Gal = molecular target: Neu5Ac(a2-6)Gal
Method in brief: as §1

[21] = molecular target: Neu5Ac(a2-6)Gal(b1-3)GlcNAc(b1-3)[Gal(b1-4)GlcNAc(b1-6)]Gal(b1-4)Glc
Method in brief: as §1

Neu5Ac(a2-6)Gal(b1-4)Glc = molecular target: Neu5Ac(a2-6)Gal(b1-4)Glc
Method in brief: as §1

[22] = molecular target: Neu5Ac(a2-6)Gal(b1-4)GlcNAc
Method in brief: as §1

[23] = molecular target: Neu5Ac(a2-6)Gal(b1-4)GlcNAc(b1-2)Man
Method in brief: as §1

[24] = molecular target: Neu5Ac(a2-6)Gal(b1-4)GlcNAc(b1-2)Man(a1-3)Man(b1-4)GlcNAc(b1-4)GlcNAc
Method in brief: as §1

[25] = molecular target: Neu5Ac(a2-6)Gal(b1-4)GlcNAc(b1-2)Man(a1-3)[Gal(b1-4)GlcNAc(b1-2)Man(a1-6)]Man(b1-4)GlcNAc(b1-4)GlcNAc
Method in brief: as §1

[26] = molecular target: Neu5Ac(a2-6)Gal(b1-4)GlcNAc(b1-2)Man(a1-3)[GlcNAc(b1-2)Man(a1-6)]Man(b1-4)GlcNAc(b1-4)GlcNAc
Method in brief: as §1

[27] = molecular target: Neu5Ac(a2-6)Gal(b1-4)GlcNAc(b1-2)Man(a1-3)[GlcNAc(b1-4)][Neu5Ac(a2-6)Gal(b1-4)GlcNAc(b1-2)Man(a1-6)]Man(b1-4)GlcNAc(b1-4)GlcNAc
Method in brief: as §1

[28] = molecular target: Neu5Ac(a2-6)Gal(b1-4)GlcNAc(b1-2)Man(a1-3)[Man(a1-6)]Man(b1-4)GlcNAc(b1-4)GlcNAc
Method in brief: as §1

[29] = molecular target: Neu5Ac(a2-6)Gal(b1-4)GlcNAc(b1-2)Man(a1-3)[Neu5Ac(a2-3)Gal(b1-4)GlcNAc(b1-2)Man(a1-6)]Man(b1-4)GlcNAc(b1-4)GlcNAc
Method in brief: as §1

[30] = molecular target: Neu5Ac(a2-6)Gal(b1-4)GlcNAc(b1-2)Man(a1-3)[Neu5Ac(a2-6)Gal(b1-4)GlcNAc(b1-2)Man(a1-6)]Man(b1-4)GlcNAc(b1-4)GlcNAc
Method in brief: as §1

[31] = molecular target: Neu5Ac(a2-6)Gal(b1-4)GlcNAc(b1-2)Man(a1-3)[Neu5Ac(a2-6)Gal(b1-4)GlcNAc(b1-2)Man(a1-6)]Man(b1-4)GlcNAc(b1-4)[Fuc(a1-6)]GlcNAc
Method in brief: as §1

[32] = molecular target: Neu5Ac(a2-6)Gal(b1-4)GlcNAc(b1-2)Man(a1-6)Man(b1-4)GlcNAc(b1-4)GlcNAc
Method in brief: as §1

[33] = molecular target: Neu5Ac(a2-6)Gal(b1-4)GlcNAc(b1-2)Man(a1-6)[Gal(b1-4)GlcNAc(b1-2)Man(a1-3)]Man(b1-4)GlcNAc(b1-4)GlcNAc
Method in brief: as §1

[34] = molecular target: Neu5Ac(a2-6)Gal(b1-4)GlcNAc(b1-2)Man(a1-6)[GlcNAc(b1-2)Man(a1-3)]Man(b1-4)GlcNAc(b1-4)GlcNAc
Method in brief: as §1

[35] = molecular target: Neu5Ac(a2-6)Gal(b1-4)GlcNAc(b1-2)Man(a1-6)[Man(a1-3)]Man(b1-4)GlcNAc(b1-4)GlcNAc
Method in brief: as §1

[36] = molecular target: Neu5Ac(a2-6)Gal(b1-4)GlcNAc(b1-2)[Neu5Ac(a2-6)Gal(b1-4)GlcNAc(b1-4)]Man(a1-3)[GlcNAc(b1-4)][Neu5Ac(a2-6)Gal(b1-4)GlcNAc(b1-2)[Neu5Ac(a2-6)Gal(b1-4)GlcNAc(b1-6)]Man(a1-6)]Man(b1-4)GlcNAc(b1-4)GlcNAc
Method in brief: as §1

[37] = molecular target: Neu5Ac(a2-6)Gal(b1-4)GlcNAc(b1-2)[Neu5Ac(a2-6)Gal(b1-4)GlcNAc(b1-4)]Man(a1-3)[GlcNAc(b1-4)][Neu5Ac(a2-6)Gal(b1-4)GlcNAc(b1-4)Man(a1-6)]Man(b1-4)GlcNAc(b1-4)GlcNAc
Method in brief: as §1

[38] = molecular target: Neu5Ac(a2-6)Gal(b1-4)GlcNAc(b1-2)[Neu5Ac(a2-6)Gal(b1-4)GlcNAc(b1-6)]Man(a1-6)[Neu5Ac(a2-6)Gal(b1-4)GlcNAc(b1-2)Man(a1-3)][GlcNAc(b1-4)]Man(b1-4)GlcNAc(b1-4)GlcNAc
Method in brief: as §1

[39] = molecular target: Neu5Ac(a2-6)Gal(b1-4)GlcNAc(b1-3)Gal(b1-3)GlcNAc
Method in brief: as §1

[40] = molecular target: Neu5Ac(a2-6)Gal(b1-4)GlcNAc(b1-3)Gal(b1-4)GlcNAc
Method in brief: as §1

[41] = molecular target: Neu5Ac(a2-6)Gal(b1-4)GlcNAc(b1-3)Gal(b1-4)GlcNAc(b1-2)Man(a1-3)[Neu5Ac(a2-6)Gal(b1-4)GlcNAc(b1-3)Gal(b1-4)GlcNAc(b1-2)Man(a1-6)]GalNAc
Method in brief: as §1

[42] = molecular target: Neu5Ac(a2-6)Gal(b1-4)GlcNAc(b1-3)Gal(b1-4)GlcNAc(b1-3)Gal(b1-4)GlcNAc
Method in brief: as §1

[43] = molecular target: Neu5Ac(a2-6)Gal(b1-4)GlcNAc(b1-3)Gal(b1-4)GlcNAc(b1-3)Gal(b1-4)GlcNAc(b1-2)Man(a1-3)[Neu5Ac(a2-6)Gal(b1-4)GlcNAc(b1-3)Gal(b1-4)GlcNAc(b1-3)Gal(b1-4)GlcNAc(b1-2)Man(a1-6)]GalNAc
Method in brief: as §1

B1: Clec18A (Homo sapiens) (protein)
chain: PFHTCDLRIDGDCFMVSSEADTYYRARMKCQRKGGVLAQIKRQKVQDILAFYLGRLETTNEVIDSDFETRNFWIGLTYKTAKDSFRWATGEHQAFTSFAFGQPDNHGFGNCVELQASAAFNWNDQRCKTRNRYICQ
glycan array binding signal (z-score) [1]: 0.45
glycan array binding signal (z-score) [2]: -0.468
glycan array binding signal (z-score) [3]: -0.986
glycan array binding signal (z-score) [4]: -0.515
glycan array binding signal (z-score) [5]: -0.808
glycan array binding signal (z-score) [6]: -0.726
glycan array binding signal (z-score) [7]: -0.809
glycan array binding signal (z-score) [8]: -0.075
glycan array binding signal (z-score) [9]: -0.159
glycan array binding signal (z-score) [10]: 0.176
glycan array binding signal (z-score) [11]: 1.49
glycan array binding signal (z-score) [12]: -0.44
glycan array binding signal (z-score) [13]: -0.788
glycan array binding signal (z-score) [14]: -0.482
glycan array binding signal (z-score) [15]: -0.968
glycan array binding signal (z-score) (Neu5Ac(a2-3)GalNAc): -0.792
glycan array binding signal (z-score) [16]: -0.815
glycan array binding signal (z-score) [17]: 1.48
glycan array binding signal (z-score) [18]: 0.247
glycan array binding signal (z-score) [19]: 0.01
glycan array binding signal (z-score) [20]: -0.878
glycan array binding signal (z-score) (Neu5Ac(a2-6)Gal): -0.402
glycan array binding signal (z-score) [21]: 1.05
glycan array binding signal (z-score) (Neu5Ac(a2-6)Gal(b1-4)Glc): -0.205
glycan array binding signal (z-score) [22]: -0.101
glycan array binding signal (z-score) [23]: -0.605
glycan array binding signal (z-score) [24]: 1.46
glycan array binding signal (z-score) [25]: 0.345
glycan array binding signal (z-score) [26]: 0.426
glycan array binding signal (z-score) [27]: 1.43
glycan array binding signal (z-score) [28]: -0.162
glycan array binding signal (z-score) [29]: -0.737
glycan array binding signal (z-score) [30]: 0.107
glycan array binding signal (z-score) [31]: 2.29
glycan array binding signal (z-score) [32]: 2.75
glycan array binding signal (z-score) [33]: 0.457
glycan array binding signal (z-score) [34]: 1.31
glycan array binding signal (z-score) [35]: -0.882
glycan array binding signal (z-score) [36]: 0.198
glycan array binding signal (z-score) [37]: 1.17
glycan array binding signal (z-score) [38]: 0.237
glycan array binding signal (z-score) [39]: -0.391
glycan array binding signal (z-score) [40]: 1.16
glycan array binding signal (z-score) [41]: -0.045
glycan array binding signal (z-score) [42]: -0.78
glycan array binding signal (z-score) [43]: -0.255
